From article PMC7376718, “Flavonoids isolated from the South African weed Chromolaena odorata (Asteraceae) have pharmacological activity against uropathogens” (BMC Complementary Medicine and Therapies, 2020)
Where two headings read alike, the source gives them in different places.

Assays:
[1] = in vitro
Description: (§1) Different concentrations of the compounds ranging from 0.003 to 0.2 mg/mL were tested for cytotoxicity against three cell lines; Vero monkey kidney, C3A and Caco2. Vero cells were grown and maintained in MEM, supplemented with 0.1% gentamicin and 5% foetal calf serum, while Caco2 and C3A cells were grown and maintained in DMEM supplemented with 10% foetal calf serum, 1% non-essential amino acids and 1% penicillin-streptomycin. All cells were incubated in a 5% CO2 incubator at 37 °C. Doxorubicin chloride was used as positive control while 10% DMSO used in dissolving the test samples was used as the negative control. The 3-(4,5-dimethylthiazol)-2,5-diphenyl tetrazolium bromide (MTT) assay described by Mosmann with modification by McGaw et al. was used to determine the cytotoxicity of the test samples. The lethal concentration (LC50) value was calculated as the concentration of tested sample resulting in a 50% reduction of absorbance compared to untreated cells. Selectivity index (SI) values were calculated against the MIC using the formula: […]

[2] = in vitro; remark: listed apart in the source
Description: as §1

O=C(O)c1cn(C2CC2)c2cc(N3CCNCC3)c(F)cc2c1=O [Ciprofloxacin, ciprofloxacin, reference compound]
CC50 [1]: > 200 µg/mL | CC50 [2]: > 200 µg/mL
